# Results deposited as PubChem BioAssay AID1508597 (Cure First, 2020).
# Assay: 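Survival screen with siRNA in ovarian cancer cells derived from patients, with or without rucaparib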 (primary screen)
# System: human ovarian carcinoma lines grown from tumours: OCI-P5x (papillary serous) and OCI-C5x (clear cell)
# Knock-down reagent: siRNA pool against human genes, 1.25 pmol siRNA per well
# Duration: 72 h or 96 h, depending on the cell culture
# Treatment: rucaparib 20 µM (about IC30) or vehicle, present until read-out
# Rucaparib or vehicle: Rucaparib
# Cell line: OCI-P5x (serous)
# Measurement: 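ATP luminescence measured at 72 or 96 h according to the culture, then normalised and expressed as percent viability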
# Direction: viability, normalised: higher = more viable cells remaining
# Hit rule: 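a well counts as a hit if its normalised viability is under 80 percent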
# Calls: active = viability under 80%; inactive = viability 80% or more
# This is an unselected part of the about 2,100 reagents, in one setting of the screen. 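Calls flag viability under 80% in either arm, not effects specific to rucaparib; the reference for percent is not stated.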 Not given: the 100% reference.
Gene,technical replicate,"viability, normalised (%)",call
STK4 (serine/threonine kinase 4),1,59.1,active
STK4 (serine/threonine kinase 4),2,45.8,active
STK4 (serine/threonine kinase 4),3,72.3,active
WWTR1 (WW domain containing transcription regulator 1),1,47.2,active
WWTR1 (WW domain containing transcription regulator 1),2,62.5,active
WWTR1 (WW domain containing transcription regulator 1),3,72.3,active
PRKG1 (protein kinase cGMP-dependent 1),1,76.9,active
PRKG1 (protein kinase cGMP-dependent 1),2,76.6,active
PRKG1 (protein kinase cGMP-dependent 1),3,72,active
EPHB4 (EPH receptor B4),1,99.4,inactive
EPHB4 (EPH receptor B4),2,81,inactive
EPHB4 (EPH receptor B4),3,80.8,inactive
"CKMT1B (creatine kinase, mitochondrial 1B)",1,85.8,inactive
"CKMT1B (creatine kinase, mitochondrial 1B)",2,77,active
"CKMT1B (creatine kinase, mitochondrial 1B)",3,95.9,inactive
CTNNB1 (catenin beta 1),1,70.5,active
CTNNB1 (catenin beta 1),2,84.6,inactive
CTNNB1 (catenin beta 1),3,72.5,active
PES1 (pescadillo ribosomal biogenesis factor 1),1,63.2,active
PES1 (pescadillo ribosomal biogenesis factor 1),2,59.9,active
PES1 (pescadillo ribosomal biogenesis factor 1),3,85.6,inactive
NRCAM (neuronal cell adhesion molecule),1,33.6,active
NRCAM (neuronal cell adhesion molecule),2,52.3,active
NRCAM (neuronal cell adhesion molecule),3,41.7,active

In a second layout: results already given.
{"Gene": "EPHB4 (EPH receptor B4)", "technical replicate": "3", "viability, normalised (%)": 80.8, "call": "inactive"}
{"Gene": "CKMT1B (creatine kinase, mitochondrial 1B)", "technical replicate": "1", "viability, normalised (%)": 85.8, "call": "inactive"}
